PubChem BioAssay AID1224830 – NIAID, 2016

Purpose: 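Genes whose knock-down alters the TNF-alpha reporter response to LPS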 (primary screen)
Cell system: human THP-1 monocytic leukaemia cells, TNF dual-luciferase reporter clone, PMA-differentiated to macrophage-like cells
Knock-down reagent: siRNA pool against human genes, 50 nM
Timing: LPS for 4 h, given about 3 days after siRNA transfection
Challenge: bacterial LPS (TLR4 ligand), 10 ng/ml
Read-out: 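Ratio of firefly to renilla light, scaled to the plate median and expressed as a robust z-score per replicate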
Scale: TNF reporter robust z-score: higher = stronger TNF reporter response to LPS
Active means: 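a well is active when its z-score exceeds 2.8 or falls below -1.5; control wells carry no call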
Shown is a random part of about 18,000 reagents tested. About 2,900 of all reagents (16%) were called active. 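Calls are made per well; low scores hint the gene aids the LPS response, high scores that it dampens it.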 Repeated entries: four replicate wells of each siRNA pool. No sequences are given here.

Target gene | TNF reporter robust z-score | outcome
RAB41 | 3.2 | active
RAB41 | 5.21 | active
RAB41 | 0.92 | inactive
RAB41 | 0.33 | inactive
DIAPH2 | 0.82 | inactive
DIAPH2 | 0.18 | inactive
DIAPH2 | 0.17 | inactive
DIAPH2 | 0.3 | inactive
AVPR1B | -0.29 | inactive
AVPR1B | -0.13 | inactive
AVPR1B | -0.27 | inactive
AVPR1B | -0.09 | inactive
TRIM15 | -1.01 | inactive
TRIM15 | 0.32 | inactive
TRIM15 | -0.46 | inactive
TRIM15 | -0.58 | inactive
VPS37C | -1 | inactive
VPS37C | -0.64 | inactive
VPS37C | -0.3 | inactive
VPS37C | -1.08 | inactive
CRTAP | -1.32 | inactive
CRTAP | -0.83 | inactive
CRTAP | -1.03 | inactive
CRTAP | -0.07 | inactive
SH2B2 | 0.7 | inactive
SH2B2 | 0.92 | inactive
SH2B2 | 1.45 | inactive
SH2B2 | 1.79 | inactive
H3C2 | -0.39 | inactive
H3C2 | 0.88 | inactive
H3C2 | 1.08 | inactive
H3C2 | -0.07 | inactive
REG1A | 0.58 | inactive
REG1A | 0.2 | inactive
REG1A | -0.2 | inactive
REG1A | -0.06 | inactive
LCAT | -0.46 | inactive
LCAT | 0.38 | inactive
LCAT | 0.66 | inactive
ASAP1 | -1.36 | inactive
ASAP1 | -0.81 | inactive
ASAP1 | -0.92 | inactive
OR10A5 | -1.69 | active
OR10A5 | -1.81 | active
OR10A5 | -1.94 | active
OR10A5 | -1.93 | active
ADAMTS12 | -0.61 | inactive
ADAMTS12 | -0.27 | inactive
ADAMTS12 | 1.35 | inactive
ADAMTS12 | 0.65 | inactive
UBAP2L | -0.18 | inactive
UBAP2L | 0.1 | inactive
UBAP2L | -0.6 | inactive
UBAP2L | 0.11 | inactive
RNASEL | 2.68 | inactive
RNASEL | 1.54 | inactive
RNASEL | 6.36 | active
RNASEL | 3.51 | active
GYPC | 3.23 | active
GYPC | 1.09 | inactive
GYPC | 0.06 | inactive
GYPC | 1.05 | inactive
INPP5A | -0.49 | inactive
INPP5A | -0.37 | inactive
INPP5A | -0.11 | inactive
CPNE6 | 0.32 | inactive
CPNE6 | 0.71 | inactive
CPNE6 | 0.8 | inactive
CPNE6 | -0.21 | inactive
TMEM158 | -0.95 | inactive
TMEM158 | -1.68 | active
TMEM158 | -1.56 | active
TMEM158 | -1.34 | inactive
FDXR | -0.26 | inactive
FDXR | 0.66 | inactive
FDXR | 0.22 | inactive
FDXR | 1.21 | inactive
EMID1 | -1.27 | inactive
EMID1 | -1.22 | inactive
EMID1 | -1.07 | inactive
EMID1 | -0.86 | inactive
USP49 | -0.29 | inactive
USP49 | 1.02 | inactive
USP49 | 2.04 | inactive
USP49 | 4.62 | active
YIPF3 | 1.35 | inactive
YIPF3 | 0.22 | inactive
YIPF3 | -1.16 | inactive
YIPF3 | -0.74 | inactive
YIPF3 | 0.34 | inactive
YIPF3 | 0.59 | inactive
YIPF3 | -0.49 | inactive
YIPF3 | 2.39 | inactive
LRP2 | -0.42 | inactive
LRP2 | -0.63 | inactive
LRP2 | 0.23 | inactive
LRP2 | -0.16 | inactive
UFM1 | 0.84 | inactive
UFM1 | 0.72 | inactive
UFM1 | 1.01 | inactive
UFM1 | 0.64 | inactive
DRC4 | -0.73 | inactive
DRC4 | -0.39 | inactive
DRC4 | -0.5 | inactive
DRC4 | -1.02 | inactive
DLGAP3 | -1.09 | inactive
DLGAP3 | -0.71 | inactive
DLGAP3 | -0.53 | inactive
DLGAP3 | -1.25 | inactive
ZKSCAN2 | -0.51 | inactive
ZKSCAN2 | -0.32 | inactive
ZKSCAN2 | -0.9 | inactive
ZKSCAN2 | -1.05 | inactive
